Assay results from paper PMC8128912.
Results are given in words; binding and its absence hold for the method and conditions named. A result given as binding can be weak or reduced; the word gives no strength. For some assays here: In cells and extracts the contact can be indirect.

Key:
[1] = molecular target: centromere protein A (CENP-A), endogenous (human (endogenous in human primary melanocytes)) (UniProt P49450); assay: co-IP; lysates of UVR-exposed human primary melanocytes; endogenous proteins; D5 anti-Mitf and EP800Y anti-CENP-A antibodies; also with alpha-MSH or UVB treatment (interaction enhanced)
[2] = molecular target: centromere protein A (CENP-A), endogenous (human (endogenous in human primary melanocytes)) (UniProt P49450); assay: SEC; whole-cell lysates from HPMs on a Superdex 200 size-exclusion column; fractions analysed by SDS-PAGE and immunoblot

binding [1]: binds | binding [2]: binds
Substance: microphthalmia-associated transcription factor (Mitf), endogenous (from UniProt O75030-9)
